According to paper PMC12520410, “A FtsZ inhibitor-acinetobactin conjugate with enhanced cellular uptake in Acinetobacter baumannii acts synergistically in combination with PBP3-targeting antibiotics” (PLOS One, 2025):
Results are given in words; binding and its absence hold for the method and conditions named. Some binding calls cover weakened binding; strength is not graded here.

How the values were obtained:
[1] = target: A. baumannii FtsZ (A. baumannii) (UniProt V5V8B6); experiment: 90°-angle light scattering (polymerization assay); 10 µM AbFtsZ added to 250 µM GTP with DMSO vehicle, 20 µM RUP7 or 40 µM RUP7; 50 mM Tris-HCl (pH 7.6), 50 mM KCl, 5 mM Mg(CH3COO)2; 25 °C; second-order light scattering recorded over 480 s; both purified
[2] = target: A. baumannii FtsZ (A. baumannii) (UniProt V5V8B6); experiment: 90°-angle light scattering (polymerization assay); negative control: 10 µM AbFtsZ added to 250 µM GDP in place of GTP, DMSO vehicle; 50 mM Tris-HCl (pH 7.6), 50 mM KCl, 5 mM Mg(CH3COO)2; 25 °C; both purified

- binding [1]: binds
B1: A. baumannii FtsZ (protein, UniProt V5V8B6 1-391)
chain: MASFEFIEDELNDGNGQARFTVFGVGGGGGNAVQHMVQSDIQGVKFVCANTDKQALDCMNAPFKIQLGEQSTRGLGAGANPEVGQVAAEESREIIRQHLEGTDMVFVTAGMGGGTGTGAAPVVAEVAKEMGILTVGVVTTPFNFEGRRRQKSAERGIEALEAHVDSLIIIPNQRLLSVYGDISMKDAYKKADDVLLNAVRSIFDLVVNRGHINLDFADLKTAMSTRGYAMMGAGLGRGEDRARQAAEQAIRSPLLDNVNIINAKGVLINITGGDDITLRETEIITDVVNQIVDLDEGEIFYGTVFDPDARDELRVTVIATGLTRNAADAEPRKRNTVSHTSTQSAQSVDEDDVPAINKRQNAENDVNNAPSSTPRSSPMSIQDYLKNQQRK
- binding [2]: no binding (condition: with 250 µM GDP in place of GTP)
